Positions count from the first letter of the chain named. No constants are given. Whether binding was seen depends on the method and setting. For some assays here: In cells and extracts the contact can be indirect. Some entries that bind do so weakly or less than the wild type. For some assays here: Where a sequence is shown, tags or fusion partners need not be part of it. Each block holds one substance with its values, some of them ahead of it.
Tests used:
[1] = molecular target: T1, biotin-tagged L5UR peptide (UniProt P15814); assay: pull-down; biotinylated L5UR (4 µM) with His-Gal1, GST-B-RBD or GST (2 µM each) in 150 µL; peptide and Gal1 30 min at 37 °C, then GST-B-RBD or GST 1 h; beads 1 h at room temperature; immunoblot; both purified
T1 sequence (peptide, N-terminal biotin via a PEG5-linker): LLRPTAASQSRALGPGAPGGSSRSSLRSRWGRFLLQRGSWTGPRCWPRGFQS

Sequences of proteins named here, by UniProt entry; tags and fusion partners are left off. A change or cut given only in a name is not applied to a line headed by its entry. Residues count along the entry.
UniProt P15056: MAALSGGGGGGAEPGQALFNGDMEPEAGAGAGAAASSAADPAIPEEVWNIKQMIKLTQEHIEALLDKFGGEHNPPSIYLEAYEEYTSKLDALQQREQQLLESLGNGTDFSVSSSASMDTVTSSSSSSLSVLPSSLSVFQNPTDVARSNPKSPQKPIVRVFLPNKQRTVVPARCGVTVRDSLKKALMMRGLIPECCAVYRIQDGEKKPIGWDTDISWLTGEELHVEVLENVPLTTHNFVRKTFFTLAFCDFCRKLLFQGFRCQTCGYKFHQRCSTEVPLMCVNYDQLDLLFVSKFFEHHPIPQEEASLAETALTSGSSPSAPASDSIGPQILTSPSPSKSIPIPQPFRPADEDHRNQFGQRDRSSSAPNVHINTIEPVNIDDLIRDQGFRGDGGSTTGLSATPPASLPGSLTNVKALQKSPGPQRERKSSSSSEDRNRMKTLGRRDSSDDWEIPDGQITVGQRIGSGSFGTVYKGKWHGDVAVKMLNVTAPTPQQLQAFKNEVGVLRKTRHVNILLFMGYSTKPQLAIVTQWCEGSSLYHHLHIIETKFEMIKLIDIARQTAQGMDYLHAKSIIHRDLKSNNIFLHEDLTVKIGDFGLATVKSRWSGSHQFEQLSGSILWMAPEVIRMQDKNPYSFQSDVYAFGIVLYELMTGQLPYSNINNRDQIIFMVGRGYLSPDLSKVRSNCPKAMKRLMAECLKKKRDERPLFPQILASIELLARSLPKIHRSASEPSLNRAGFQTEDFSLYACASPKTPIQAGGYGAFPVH
B-Raf-derived RBD (BRET construct): residues 155-227 of P15056
UniProt P09382: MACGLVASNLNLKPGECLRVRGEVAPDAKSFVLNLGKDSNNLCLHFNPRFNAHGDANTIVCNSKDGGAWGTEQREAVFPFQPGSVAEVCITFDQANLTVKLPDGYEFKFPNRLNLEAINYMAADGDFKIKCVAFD
UniProt O75901: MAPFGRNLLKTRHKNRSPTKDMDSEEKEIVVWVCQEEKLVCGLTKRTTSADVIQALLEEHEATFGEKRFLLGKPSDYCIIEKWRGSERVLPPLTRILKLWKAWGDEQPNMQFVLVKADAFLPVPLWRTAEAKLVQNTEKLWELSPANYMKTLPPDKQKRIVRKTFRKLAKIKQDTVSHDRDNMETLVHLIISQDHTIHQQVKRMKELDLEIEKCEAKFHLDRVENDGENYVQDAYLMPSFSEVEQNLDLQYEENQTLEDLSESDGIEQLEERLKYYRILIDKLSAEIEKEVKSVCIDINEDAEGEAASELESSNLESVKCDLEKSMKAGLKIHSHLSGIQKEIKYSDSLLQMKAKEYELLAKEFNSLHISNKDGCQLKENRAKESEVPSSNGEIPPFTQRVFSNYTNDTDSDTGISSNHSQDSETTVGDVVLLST

L5UR-SNAP = molecular target: T2, L5UR-SNAP (UniProt P15814); assay: pull-down; HEK293-EBNA cells co-transfected with hGal1 and L5UR-SNAP, mutL5UR-SNAP or SNAP; cleared lysate with SNAP-capture magnetic beads 2 h at room temperature; washes with 150 mM NaCl, 0.5% NP-40; immunoblot
T2 sequence: T1 sequence (peptide, N-terminal biotin via a PEG5-linker)

B-Raf (BRET construct) = B-Raf (BRET construct) (UniProt P15056); assay: FRET or BRET; BRET donor saturation titration in HEK293-EBNA cells; 25 ng donor plasmid, 25 to 1000 ng acceptor plasmid, 48 h expression; BRETtop compared
[2] = molecular target: T3, A-RBD with mutation D75A (BRET construct) (UniProt P10398); assay: as above
T3 sequence: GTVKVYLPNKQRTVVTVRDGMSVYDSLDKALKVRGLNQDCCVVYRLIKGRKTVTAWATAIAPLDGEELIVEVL

[3] = molecular target: B-Raf-derived RBD (BRET construct) (UniProt P15056); assay: as above
[4] = molecular target: T4, A-Raf-derived RBD (BRET construct) (UniProt P10398); assay: as above
T4 sequence: T3 sequence with A57D

[5] = molecular target: B-Raf-derived RBD (BRET construct) (UniProt P15056); assay: FRET or BRET; dose-response BRET of Gal1/B-RBD (donor:acceptor plasmid 1:10) in HEK293-EBNA cells with 125 to 850 ng modulator plasmid of L5UR constructs, 48 h

- binding [1]: binds
Substance: His-tagged galectin-1 (from UniProt P09382 1-135)

- binding (L5UR-SNAP): binds
Substance: RASSF9 (HEK lysate) (from UniProt O75901 1-435)

- binding (L5UR-SNAP): binds
Substance: full-length B-Raf (HEK lysate) (from UniProt P15056 1-766)

- binding (B-Raf (BRET construct)): binds
- binding [2]: binds
- binding [3]: binds
- binding [4]: binds
- binding [5]: binds
Substance: galectin-1 (BRET construct) (from UniProt P09382 1-135)

— publication PMC11233548, “Identification of an H-Ras nanocluster disrupting peptide” (Communications Biology, 2024)
